# Laboratory results: PubChem BioAssay AID445 (National Center for Advancing Translational Sciences (NCATS), 2006)
# The list shows a part of the results. The main result of the screen is listed elsewhere. These columns were measured beside it and carry no call. The list favours compounds with an active or inconclusive main result. Words in brackets tell the shape of the fitted curve; partial curves, single points and poor fits give uncertain potencies.
# Assay: IkB Signaling
# Settings: ABC-DLBCL IkBa-CBG/CBR dual luciferase ratio (green luciferase fused to IkBa over red control in OCI-Ly3 lymphoma cells), 4 h
# In short: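 Luminescence ratio of IκBα-fused green versus native red beetle luciferase in OCI-Ly3 cells, 4 h post-doxycycline with compound; red signal alone, scaled from basal (0%) to zero light (-100%), flagged nonspecific or cytotoxic effects.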
# [1] = measured here: control luc red channel unless noted
smiles,measurement,setting,value
CN(C)c1ccc(C(=N)c2ccc(N(C)C)cc2)cc1,AC50,[1],"31.6 µM [falling, partial curve, poor fit]"
COc1ccc2c(c1)-c1nc(NC(=O)c3cccc(Br)c3)sc1CC2,AC50,[1],"0.794 µM [falling, partial curve]"
Cc1ccc(NC(=O)CN2C(=O)c3cccnc3Sc3ccccc32)c(Br)c1,AC50,[1],"31.6 µM [falling, single point]"
Cc1ccc(NC(=O)Cn2nnc(-c3ccccc3)n2)c(C)c1,AC50,[1],"7.94 µM [rising, partial curve]"
O=C(C1COc2ccccc2O1)N(Cc1cccnc1)c1nc2c(F)cccc2s1 (configuration not stated),AC50,[1],"31.6 µM [falling, single point]"
CC1CCN(S(=O)(=O)c2cc(C(=O)N3CCN(c4cccc(Cl)c4)CC3)n(C)c2)CC1,AC50,[1],"15.8 µM [falling, single point]"
COc1ccc(N(CC(=O)N2CCc3ccccc3C2)S(=O)(=O)c2ccccc2)cc1,AC50,[1],"39.8 µM [falling, single point]"
COc1ccccc1C1C(C(=O)N2CCCCC2)=C(C)Nc2nc3ccccc3n21 (configuration not stated),AC50,[1],"39.8 µM [falling, single point]"
CCOC(=O)c1nnn(C(CC)C(=O)Nc2ccc(F)cc2)c1C(=O)OCC (configuration not stated),AC50,[1],"0.01 µM [falling, full curve, poor fit]"
Cc1cccc(-c2noc(-c3ccccc3OCC(=O)Nc3ccccc3[N+](=O)[O-])n2)c1,AC50,[1],"15.8 µM [falling, single point]"
CCOC(=O)c1ccc(NC(=O)C(C)Sc2nc(=O)cc(N)n2CCc2ccccc2)cc1 (configuration not stated),AC50,[1],"15.8 µM [falling, partial curve]"
O=C(Nc1scc(-c2cccs2)c1C(=O)O)c1cccs1,AC50,[1],"2.51 µM [falling, full curve]"
CCn1c(=O)c(C(=O)Nc2ccccc2S(N)(=O)=O)c(O)c2ccccc21,AC50,[1],"0.1 µM [falling, full curve]"
CSc1nc(N2CCN(CCO)CC2)c2sc3nc(-c4ccco4)c4c(c3c2n1)CCC4,AC50,[1],"3.16 µM [falling, full curve, poor fit]"
COc1cc(C(=O)N2CCN(c3cc(Cl)ccc3Cl)CC2)cc(OC)c1OC,AC50,measured here: IkB-luc green channel,"2.51 µM [rising, full curve]"
same,AC50,measured here: control luc red channel,"2 µM [rising, full curve]"
O=C(NCc1ccccc1Cl)c1c2c(nc3ccccc13)C(=O)N(C1CCCCC1)C2,AC50,[1],"25.1 µM [falling, single point]"
CCN(CC)c1ccc(C2C(C(=O)Nc3ccccc3C)=C(C)Nc3ncnn32)cc1 (configuration not stated),AC50,[1],"0.631 µM [falling, full curve]"
O=c1[nH]c2ccc(S(=O)(=O)N3CCN(c4ccccc4F)CC3)cc2s1,AC50,[1],"12.6 µM [falling, partial curve]"
COC(=O)CCCCCn1c(-c2ccccc2)cn2c3c(=O)n(C)c(=O)n(C)c3nc12,AC50,[1],"39.8 µM [falling, single point]"
CCN(CC)S(=O)(=O)c1ccc2oc(C(=O)N3CCCCCC3)c(C)c2c1,AC50,[1],"10 µM [falling, partial curve]"
Cc1ccc(C)c(N2CCN(CCCNC(=O)c3cnn(-c4ccccc4)c3C3CCN(C(=O)OC(C)(C)C)CC3)CC2)c1,AC50,[1],"10 µM [falling, partial curve]"
Cn1c(SCC(=O)Nc2sc3c(c2C#N)CCC3)nnc1C1COc2ccccc2O1 (configuration not stated),AC50,[1],"39.8 µM [falling, single point]"
CCn1c(CSc2nc3ccccc3s2)nc2ccccc21,AC50,[1],"10 µM [falling, partial curve]"
CC(C)n1c(SCC(N)=O)nc2c1c(=O)[nH]c(=O)n2C,AC50,[1],"20 µM [rising, partial curve]"
O=C1CS(=O)(=O)C2(C(=O)N(Cc3ccccc3)c3ccccc32)N1c1ccc(F)c(Cl)c1 (configuration not stated),AC50,[1],"31.6 µM [falling, partial curve]"
COc1ccc(S(=O)(=O)N(CC(=O)Nc2ccccc2Cl)Cc2ccccc2)cc1,AC50,[1],"0.251 µM [falling, full curve, poor fit]"
Cc1ccc(CCNC(=O)CN2C(=O)COc3ccc(S(=O)(=O)N4CCCCCC4)cc32)cc1,AC50,[1],"39.8 µM [falling, single point]"
O=C(Nc1cccc(Cl)c1)c1cc(-c2ccc3c(c2)OCO3)on1,AC50,[1],"0.0631 µM [falling, full curve]"
COc1cccc(-c2nnn(CCC(=O)O)n2)c1,AC50,[1],"2.51 µM [falling, full curve] [measured here: IkB-luc green channel]"
COc1cc(OC)cc(C(=O)Nc2ccc3nc4n(c(=O)c3c2)CCCCC4)c1,AC50,[1],"15.8 µM [falling, partial curve]"
COc1ccccc1C(=O)Oc1c(Sc2ccccc2)c(C)nn1-c1ccccc1,AC50,[1],"3.16 µM [falling, full curve]"
O=C(Nc1ccc(F)cc1F)c1cc(S(=O)(=O)N2CCCCC2)c[nH]1,AC50,[1],"15.8 µM [falling, partial curve]"
Cc1ccc(C)c(N2C(=O)N(Cc3cccc(C(F)(F)F)c3)c3ccccc3S2(=O)=O)c1,AC50,[1],"10 µM [falling, partial curve]"
CCn1c2c(c(=O)n3ncc(C(=O)N4CCN(c5ccc(C(C)=O)cc5)CC4)c13)CN(Cc1ccc(OC)cc1)CC2,AC50,[1],"15.8 µM [falling, partial curve]"
COc1ccc(F)cc1S(=O)(=O)Nc1ccc2c(c1)CCCN2C(=O)c1cccs1,AC50,[1],"39.8 µM [falling, single point]"
COC(=O)c1sccc1S(=O)(=O)N(CC(=O)NCc1ccc(C)cc1)c1ccc(C)c(C)c1,AC50,[1],"3.98 µM [falling, partial curve]"
Cc1cc(NC(=O)c2cc(Cl)ccc2Cl)ccc1-c1cc2ccccc2oc1=O,AC50,[1],"3.16 µM [falling, single point]"
CC(=O)c1c(C)oc2c1cc(NS(=O)(=O)c1c(C)cc(C)cc1C)c1ccccc12,AC50,[1],"12.6 µM [falling, partial curve]"
Cc1ccc(C)c(N2CCN(C(=O)CCCCn3c(=O)[nH]c4ccccc4c3=O)CC2)c1,AC50,[1],"12.6 µM [falling, partial curve]"
CCCNC(=O)Cn1c(=O)c2cccn2c2cccnc21,AC50,[1],"0.0398 µM [rising, full curve, poor fit]"
COc1ccc(C2=NS(=O)(=O)N(C)C(C(=O)N(C)Cc3ccccc3)=C2)cc1OC,AC50,[1],"0.0398 µM [falling, full curve]"
Cc1ccccc1OCc1nc2ccccc2n1Cc1ccccc1Cl,AC50,[1],"31.6 µM [falling, partial curve]"
CC(=O)c1ccc(NC(=O)CSc2cn(CC(=O)N(C(C)C)C(C)C)c3ccccc23)cc1,AC50,[1],"15.8 µM [falling, single point]"
CCS(=O)(=O)N1CCc2cc(C(=O)Nc3cccc(C(C)=O)c3)ccc21,AC50,[1],"25.1 µM [falling, partial curve]"
CCCCN(CC)C(=O)CCNS(=O)(=O)c1ccc2c(c1)c(=O)n(C)c(=O)n2C,AC50,[1],"39.8 µM [falling, single point]"
CCCOc1cccc(C2c3c(-c4ccccc4O)n[nH]c3C(=O)N2Cc2ccco2)c1 (configuration not stated),AC50,[1],"25.1 µM [falling, partial curve]"
CC(C)CCn1c(Oc2ccccc2F)nc2c1c(=O)n(C)c(=O)n2C,AC50,[1],"5.01 µM [falling, partial curve]"
CCCCN1C(=O)C(O)(CC(=O)c2ccco2)c2cc(Br)ccc21 (configuration not stated),AC50,[1],"3.98 µM [rising, full curve, poor fit] [measured here: IkB-luc green channel]"
COc1ccc(C(CNC(=O)c2oc3cc(C)c(Cl)cc3c2C)N2CCCCC2)cc1 (configuration not stated),AC50,[1],"1 µM [falling, partial curve]"
O=C(Cn1nc(-c2ccc(Cl)cc2)c2ccccc2c1=O)Nc1cccc(C(F)(F)F)c1,AC50,[1],"6.31 µM [falling, partial curve]"
Cn1c(=O)c(=O)n(C)c2cc(C(=O)NCc3ccccc3Cl)ccc21,AC50,[1],"0.398 µM [rising, single point]"
COC(=O)c1scc(-c2ccc(C)cc2)c1S(=O)(=O)N1CCN(c2ccc(C)cc2C)CC1,AC50,[1],"7.94 µM [falling, partial curve]"
COc1cccc(Nc2nc3ccccc3c3nncn23)c1,AC50,[1],"39.8 µM [falling, single point]"
Cn1c(SCc2cc(=O)c3cc(Cl)ccc3[nH]2)nnc1-c1ccccc1,AC50,[1],"25.1 µM [falling, partial curve]"
CCc1cc(=O)oc2c(C)c3c(cc12)CN(CCc1ccccc1OC)CO3,AC50,[1],"20 µM [falling, partial curve]"
COCCCNC(=O)c1sc2nc(C)c(C(=O)Nc3ccc(C)cc3C)c(-c3ccccc3Cl)c2c1N,AC50,[1],"25.1 µM [falling, partial curve]"
CCc1ccc2oc(-c3ccc(NC(=O)c4cc5ccccc5o4)cc3)nc2c1,AC50,[1],"0.794 µM [falling, full curve]"
COc1ccc(C(=O)NCc2ccc3c(c2)CCN3C(=O)c2ccccc2)cc1,AC50,[1],"25.1 µM [falling, single point]"
COc1ccc(NS(=O)(=O)c2ccc(-c3cnc(C4CC4)o3)cc2)cc1Cl,AC50,[1],"39.8 µM [falling, partial curve]"
COc1ccccc1-c1nnc(SCC(=O)N2CCOCC2)o1,AC50,[1],"12.6 µM [falling, partial curve]"
c1ccc(-n2nnc3c(N4CCOCC4)ncnc32)cc1,AC50,[1],"12.6 µM [falling, partial curve]"

# 3 records picked at random from those above, as already listed:
smiles,measurement,setting,value
O=C(Nc1scc(-c2cccs2)c1C(=O)O)c1cccs1,AC50,[1],"2.51 µM [falling, full curve]"
COc1cc(OC)cc(C(=O)Nc2ccc3nc4n(c(=O)c3c2)CCCCC4)c1,AC50,[1],"15.8 µM [falling, partial curve]"
CC(=O)c1ccc(NC(=O)CSc2cn(CC(=O)N(C(C)C)C(C)C)c3ccccc23)cc1,AC50,[1],"15.8 µM [falling, single point]"

# Given tab-delimited: part of the list above.
smiles	measurement	setting	value
O=C(Nc1ccc(F)cc1F)c1cc(S(=O)(=O)N2CCCCC2)c[nH]1	AC50	[1]	15.8 µM [falling, partial curve]
Cc1ccc(C)c(N2C(=O)N(Cc3cccc(C(F)(F)F)c3)c3ccccc3S2(=O)=O)c1	AC50	[1]	10 µM [falling, partial curve]
